Results from paper PMC3975426.
Results are given in words; binding and its absence hold for the method and conditions named. Binding seen in cells or lysates may run through a third protein. Here binding means that the protein was enriched with, or labelled near, the bait; the list need not be complete.

Sequences of proteins named here, by UniProt entry; tags and fusion partners are left off.
UniProt Q8N122: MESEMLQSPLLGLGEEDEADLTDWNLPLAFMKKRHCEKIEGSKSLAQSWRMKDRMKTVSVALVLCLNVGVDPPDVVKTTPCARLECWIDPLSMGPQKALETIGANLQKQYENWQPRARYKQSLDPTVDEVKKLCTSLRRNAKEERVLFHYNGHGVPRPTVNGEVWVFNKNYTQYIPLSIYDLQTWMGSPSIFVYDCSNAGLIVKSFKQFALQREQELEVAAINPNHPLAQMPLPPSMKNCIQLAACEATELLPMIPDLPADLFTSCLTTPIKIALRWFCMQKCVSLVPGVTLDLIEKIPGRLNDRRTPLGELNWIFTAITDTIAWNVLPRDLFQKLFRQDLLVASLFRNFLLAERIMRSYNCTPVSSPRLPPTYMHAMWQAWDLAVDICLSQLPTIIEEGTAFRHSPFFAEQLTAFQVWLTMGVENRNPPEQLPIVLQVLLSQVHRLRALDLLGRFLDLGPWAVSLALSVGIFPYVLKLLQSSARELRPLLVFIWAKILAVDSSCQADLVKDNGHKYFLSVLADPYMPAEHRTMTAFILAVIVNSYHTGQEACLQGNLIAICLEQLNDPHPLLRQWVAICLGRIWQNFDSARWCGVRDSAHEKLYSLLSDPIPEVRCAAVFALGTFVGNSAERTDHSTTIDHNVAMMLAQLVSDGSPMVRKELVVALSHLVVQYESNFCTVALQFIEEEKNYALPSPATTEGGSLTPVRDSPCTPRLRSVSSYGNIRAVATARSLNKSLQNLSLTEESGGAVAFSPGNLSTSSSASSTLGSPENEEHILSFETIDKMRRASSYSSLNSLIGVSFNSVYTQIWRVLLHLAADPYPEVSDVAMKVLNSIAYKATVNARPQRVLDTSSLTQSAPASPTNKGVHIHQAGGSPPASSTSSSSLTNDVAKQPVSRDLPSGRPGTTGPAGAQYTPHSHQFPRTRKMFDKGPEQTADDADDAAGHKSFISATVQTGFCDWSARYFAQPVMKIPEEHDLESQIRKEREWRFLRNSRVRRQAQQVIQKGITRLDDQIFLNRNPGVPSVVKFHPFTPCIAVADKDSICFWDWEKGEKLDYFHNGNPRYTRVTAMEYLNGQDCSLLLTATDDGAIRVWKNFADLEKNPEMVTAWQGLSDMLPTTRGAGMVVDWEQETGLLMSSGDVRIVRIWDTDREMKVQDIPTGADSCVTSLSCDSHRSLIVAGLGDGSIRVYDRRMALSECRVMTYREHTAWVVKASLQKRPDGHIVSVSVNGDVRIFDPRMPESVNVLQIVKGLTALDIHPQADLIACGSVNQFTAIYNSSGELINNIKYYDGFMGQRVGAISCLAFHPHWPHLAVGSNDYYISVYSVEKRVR
UniProt P04406: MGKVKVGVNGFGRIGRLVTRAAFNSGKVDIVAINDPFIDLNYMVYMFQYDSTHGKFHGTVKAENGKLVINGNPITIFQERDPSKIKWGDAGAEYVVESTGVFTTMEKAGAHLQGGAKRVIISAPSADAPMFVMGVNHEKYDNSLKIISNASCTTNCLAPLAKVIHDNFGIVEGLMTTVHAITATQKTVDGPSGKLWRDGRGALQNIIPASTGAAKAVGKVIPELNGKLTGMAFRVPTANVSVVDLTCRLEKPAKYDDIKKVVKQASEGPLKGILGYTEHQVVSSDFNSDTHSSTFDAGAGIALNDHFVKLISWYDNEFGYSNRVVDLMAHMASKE

Columns and labels:
[1] = target: regulatory-associated protein of mTOR (Raptor) (human (endogenous in CCRF-CEM and HEK293)) (UniProt Q8N122); assay: affinity purification with mass spectrometry; endogenous raptor IP (raptor antibody, Dynabeads G) from CCRF-CEM and HEK293 lysates; Coomassie-stained lane cut, in-gel trypsin digestion, nano-LC ESI Q-TOF MS/MS; proteins of the mock control subtracted
myc-tag raptor = myc-tag raptor (UniProt Q8N122); assay: affinity purification with mass spectrometry; myc-tag raptor precipitated with myc-tag monoclonal antibody conjugated agarose beads (spin column) from transfected CCRF-CEM and HEK293 lysates in CHAPS buffer, overnight at 4 °C, glycine pH 2.8 elution; silver-stained lane cut, in-gel trypsin digestion, nano-LC ESI Q-TOF MS/MS; proteins of the mock control subtracted

With “glyceraldehyde 3 phosphate dehydrogenase (from UniProt P04406 1-335)” the binding [1] was “binds” and the binding (myc-tag raptor) was “binds”.

B1: enhancer of mRNA decapping protein 4 (protein, UniProt Q6P2E9 1-1401)
chain: MASCASIDIEDATQHLRDILKLDRPAGGPSAESPRPSSAYNGDLNGLLVPDPLCSGDSTSANKTGLRTMPPINLQEKQVICLSGDDSSTCIGILAKEVEIVASSDSSISSKARGSNKVKIQPVAKYDWEQKYYYGNLIAVSNSFLAYAIRAANNGSAMVRVISVSTSERTLLKGFTGSVADLAFAHLNSPQLACLDEAGNLFVWRLALVNGKIQEEILVHIRQPEGTPLNHFRRIIWCPFIPEESEDCCEESSPTVALLHEDRAEVWDLDMLRSSHSTWPVDVSQIKQGFIVVKGHSTCLSEGALSPDGTVLATASHDGYVKFWQIYIEGQDEPRCLHEWKPHDGRPLSCLLFCDNHKKQDPDVPFWRFLITGADQNRELKMWCTVSWTCLQTIRFSPDIFSSVSVPPSLKVCLDLSAEYLILSDVQRKVLYVMELLQNQEEGHACFSSISEFLLTHPVLSFGIQVVSRCRLRHTEVLPAEEENDSLGADGTHGAGAMESAAGVLIKLFCVHTKALQDVQIRFQPQLNPDVVAPLPTHTAHEDFTFGESRPELGSEGLGSAAHGSQPDLRRIVELPAPADFLSLSSETKPKLMTPDAFMTPSASLQQITASPSSSSSGSSSSSSSSSSSLTAVSAMSSTSAVDPSLTRPPEELTLSPKLQLDGSLTMSSSGSLQASPRGLLPGLLPAPADKLTPKGPGQVPTATSALSLELQEVEPLGLPQASPSRTRSPDVISSASTALSQDIPEIASEALSRGFGSSAPEGLEPDSMASAASALHLLSPRPRPGPELGPQLGLDGGPGDGDRHNTPSLLEAALTQEASTPDSQVWPTAPDITRETCSTLAESPRNGLQEKHKSLAFHRPPYHLLQQRDSQDASAEQSDHDDEVASLASASGGFGTKVPAPRLPAKDWKTKGSPRTSPKLKRKSKKDDGDAAMGSRLTEHQVAEPPEDWPALIWQQQRELAELRHSQEELLQRLCTQLEGLQSTVTGHVERALETRHEQEQRRLERALAEGQQRGGQLQEQLTQQLSQALSSAVAGRLERSIRDEIKKTVPPCVSRSLEPMAGQLSNSVATKLTAVEGSMKENISKLLKSKNLTDAIARAAADTLQGPMQAAYREAFQSVVLPAFEKSCQAMFQQINDSFRLGTQEYLQQLESHMKSRKAREQEAREPVLAQLRGLVSTLQSATEQMAATVAGSVRAEVQHQLHVAVGSLQESILAQVQRIVKGEVSVALKEQQAAVTSSIMQAMRSAAGTPVPSAHLDCQAQQAHILQLLQQGHLNQAFQQALTAADLNLVLYVCETVDPAQVFGQPPCPLSQPVLLSLIQQLASDLGTRTDLKLSYLEEAVMHLDHSDPITRDHMGSVMAQVRQKLFQFLQAEPHNSLGKAARRLSLMLHGLVTPSLP
For B1, the binding [1] was “binds” and the binding (myc-tag raptor) was “binds”.
